In patent publication US20050158322A1:

What was measured:
[1] = target: keyhole limpet haemocyanin (Sigma) (keyhole limpet); test: condition: periplasm diluted 1:5, 1:10 and 1:20; antigen coated at 10 µg/mL; ELISA on coated polyvinyl plates, detection with Mab 9E10
[2] = target: lyzozyme; test: as above

binding [1]: no binding | binding [2]: no binding
B1: monovalent scFv fragment (clone pJG1m-25), produced in E. coli (scFv, not shown: small tags and cut ends)
scFv: EVKLVESGGDLVKPGGSLKFSCAASGFPFNRYAMSWVRQTPEKRLEWVAFISSDGIAYYADSVKGRFTISRDNARNILYLQMSSLRSEDTAMYYCARVYYYGSSYFDYWGQGTTLTVSSEGKSSGSGSESKVDDIVMTQSPKFMSTSVGDRVSVTCKASQNAGTNVAWYQQKPGQSPKALIYSASSRNSGVPDRITGSGSGTDFTLTISNVQSEDLAEYFCQQYNSYPLVTFGAGTKLELK

No constants are given. Whether binding was seen depends on the method and setting.
